The record followed here is article PMC3002268.

For assay [1], the target named is T1, GST-Vls^309-367 (Drosophila) (UniProt Q9VIP8).
T1 sequence: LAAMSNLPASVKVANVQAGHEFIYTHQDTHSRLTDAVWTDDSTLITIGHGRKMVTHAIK
Kind of assay: pull-down; GST-fusion proteins immobilised on glutathione sepharose; in vitro translated S•Tag-Osk added; 20 mM HEPES pH 7.8, 10% glycerol, 300 mM NaCl, 0.1% sodium deoxycholate, 0.1% NP40, 0.1% Triton X-100; 3 hr at room temperature; bound S•Tag-Osk detected with S-protein alkaline phosphatase conjugate; only the target purified.

Assay [2] addresses T2, Full length GST-Vls (367 amino acid residues) (Drosophila) (UniProt Q9VIP8).
T2 sequence: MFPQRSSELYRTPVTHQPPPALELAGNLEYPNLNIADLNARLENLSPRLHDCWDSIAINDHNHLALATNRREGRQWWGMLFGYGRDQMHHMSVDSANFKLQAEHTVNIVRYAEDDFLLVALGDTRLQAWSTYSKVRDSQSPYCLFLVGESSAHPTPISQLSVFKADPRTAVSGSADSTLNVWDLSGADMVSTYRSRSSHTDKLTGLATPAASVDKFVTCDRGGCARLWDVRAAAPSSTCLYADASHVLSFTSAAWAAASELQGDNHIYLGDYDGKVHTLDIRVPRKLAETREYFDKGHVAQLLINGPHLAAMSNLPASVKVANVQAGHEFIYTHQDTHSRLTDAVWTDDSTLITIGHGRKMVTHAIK
Described as above.

Assay [3] addresses T1, GST-Vls^309-367 (Drosophila). Kind of assay: pull-down; GST-Vls^309-367 immobilised, in vitro translated S•Tag-Osk, synthetic Vls peptides added to the binding assay; only the target purified.
In assay [4] the target is S•Tag-short Osk isoform (full size) (Drosophila). Kind of assay: pull-down; competition: synthetic Vls peptide added to the binding assay of in vitro translated S•Tag-Osk with GST-Vls^309-367; only the binder purified.

Results are given in words; binding and its absence hold for the method and conditions named. In cells and extracts the contact can be indirect. A result given as binding can be weak or reduced; the word gives no strength. For some of these results: Where a sequence is shown, tags or fusion partners need not be part of it.

“S•Tag-short Osk isoform (full size) (Drosophila)”: the binding result in assay [1], in assay [2] and in assay [3] was “binds” throughout.
As for AAMSNLPASVKVANVQAGHEFIYTHQDTHSR (peptide, UniProt Q9VIP8 310-340) [synthetic peptide made of residues 310 to 340 of Vls], the binding entry in assay [4] is “binds”.
